No constants are given. Whether binding was seen depends on the method and setting. Binding seen in cells or lysates may run through a third protein. A yes stands for co-enrichment or nearness to the bait. Other partners may have been found. Where a sequence is shown, tags or fusion partners need not be part of it.

By UniProt entry, the sequences of proteins in these tests, tags left out. Residues count along the entry.
UniProt Q9UL25: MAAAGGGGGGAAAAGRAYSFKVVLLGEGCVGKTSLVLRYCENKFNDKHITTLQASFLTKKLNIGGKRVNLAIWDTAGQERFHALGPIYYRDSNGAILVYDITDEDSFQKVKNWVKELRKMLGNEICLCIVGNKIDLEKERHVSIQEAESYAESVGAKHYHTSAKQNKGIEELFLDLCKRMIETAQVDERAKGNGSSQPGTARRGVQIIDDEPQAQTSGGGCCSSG
UniProt Q9BQ67: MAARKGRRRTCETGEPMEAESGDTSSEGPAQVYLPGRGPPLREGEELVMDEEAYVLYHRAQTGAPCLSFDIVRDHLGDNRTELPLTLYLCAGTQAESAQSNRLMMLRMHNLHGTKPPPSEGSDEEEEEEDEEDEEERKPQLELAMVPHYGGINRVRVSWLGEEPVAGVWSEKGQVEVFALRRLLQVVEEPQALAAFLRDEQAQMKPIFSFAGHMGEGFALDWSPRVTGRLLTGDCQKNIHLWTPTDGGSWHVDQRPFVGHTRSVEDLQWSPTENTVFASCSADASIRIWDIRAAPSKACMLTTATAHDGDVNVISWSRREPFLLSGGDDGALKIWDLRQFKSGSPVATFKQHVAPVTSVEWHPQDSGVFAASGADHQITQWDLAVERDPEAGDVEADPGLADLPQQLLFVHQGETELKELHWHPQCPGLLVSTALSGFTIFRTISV
UniProt Q9NX14, residues 30-153: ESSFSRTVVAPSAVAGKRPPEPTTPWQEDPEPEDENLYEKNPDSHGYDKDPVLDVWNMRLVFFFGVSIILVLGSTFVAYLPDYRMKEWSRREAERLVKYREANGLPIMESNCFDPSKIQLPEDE
UniProt Q99700: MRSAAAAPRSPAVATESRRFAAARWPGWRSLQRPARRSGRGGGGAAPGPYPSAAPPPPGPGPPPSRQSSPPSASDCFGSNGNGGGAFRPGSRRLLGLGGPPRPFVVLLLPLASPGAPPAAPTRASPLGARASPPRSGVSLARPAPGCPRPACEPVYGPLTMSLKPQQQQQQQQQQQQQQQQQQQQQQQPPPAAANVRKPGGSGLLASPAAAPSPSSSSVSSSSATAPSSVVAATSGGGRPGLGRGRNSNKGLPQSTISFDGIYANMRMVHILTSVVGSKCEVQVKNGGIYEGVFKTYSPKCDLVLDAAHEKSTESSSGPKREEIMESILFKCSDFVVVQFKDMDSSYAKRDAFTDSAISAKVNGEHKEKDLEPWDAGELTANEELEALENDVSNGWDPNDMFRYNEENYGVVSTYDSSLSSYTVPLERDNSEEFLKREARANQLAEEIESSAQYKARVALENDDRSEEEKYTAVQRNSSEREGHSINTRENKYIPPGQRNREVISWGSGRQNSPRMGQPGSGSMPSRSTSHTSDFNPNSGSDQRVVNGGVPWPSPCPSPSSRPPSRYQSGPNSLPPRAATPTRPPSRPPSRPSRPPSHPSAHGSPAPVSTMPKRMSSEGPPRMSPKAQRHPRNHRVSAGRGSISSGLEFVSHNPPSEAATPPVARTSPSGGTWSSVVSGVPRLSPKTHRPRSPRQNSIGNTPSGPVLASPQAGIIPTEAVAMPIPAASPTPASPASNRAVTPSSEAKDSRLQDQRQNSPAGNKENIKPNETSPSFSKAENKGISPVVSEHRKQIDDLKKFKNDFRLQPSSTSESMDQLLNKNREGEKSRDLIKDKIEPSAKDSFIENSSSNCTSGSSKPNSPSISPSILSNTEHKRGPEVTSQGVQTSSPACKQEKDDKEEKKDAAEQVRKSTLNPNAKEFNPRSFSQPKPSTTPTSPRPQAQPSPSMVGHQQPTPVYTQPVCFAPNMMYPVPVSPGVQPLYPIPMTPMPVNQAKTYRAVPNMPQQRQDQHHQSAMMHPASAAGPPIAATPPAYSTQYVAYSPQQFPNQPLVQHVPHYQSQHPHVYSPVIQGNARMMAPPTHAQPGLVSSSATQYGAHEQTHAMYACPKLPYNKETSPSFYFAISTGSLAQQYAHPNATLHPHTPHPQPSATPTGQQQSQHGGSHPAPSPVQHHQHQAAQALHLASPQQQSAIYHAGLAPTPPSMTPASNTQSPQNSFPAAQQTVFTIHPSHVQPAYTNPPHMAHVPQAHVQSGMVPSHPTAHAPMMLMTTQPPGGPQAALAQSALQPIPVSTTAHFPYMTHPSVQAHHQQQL
UniProt P33897: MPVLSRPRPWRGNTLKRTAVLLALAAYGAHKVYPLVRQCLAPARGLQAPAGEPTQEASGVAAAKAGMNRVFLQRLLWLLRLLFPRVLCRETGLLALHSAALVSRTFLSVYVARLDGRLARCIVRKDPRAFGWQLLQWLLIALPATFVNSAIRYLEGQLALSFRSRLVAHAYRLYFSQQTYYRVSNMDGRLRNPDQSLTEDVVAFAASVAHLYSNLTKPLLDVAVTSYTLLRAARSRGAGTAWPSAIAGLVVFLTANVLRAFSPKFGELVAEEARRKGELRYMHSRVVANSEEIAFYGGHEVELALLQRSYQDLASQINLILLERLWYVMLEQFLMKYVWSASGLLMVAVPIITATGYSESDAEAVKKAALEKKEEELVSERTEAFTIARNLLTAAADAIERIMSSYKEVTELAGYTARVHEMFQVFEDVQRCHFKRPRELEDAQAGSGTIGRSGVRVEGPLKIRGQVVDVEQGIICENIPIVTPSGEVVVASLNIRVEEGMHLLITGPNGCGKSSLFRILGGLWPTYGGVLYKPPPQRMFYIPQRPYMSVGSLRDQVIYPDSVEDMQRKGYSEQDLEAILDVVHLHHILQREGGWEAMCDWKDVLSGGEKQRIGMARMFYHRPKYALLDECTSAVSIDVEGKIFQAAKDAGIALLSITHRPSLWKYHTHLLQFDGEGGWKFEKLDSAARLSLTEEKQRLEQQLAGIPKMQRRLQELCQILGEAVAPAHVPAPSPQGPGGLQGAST
UniProt O60826: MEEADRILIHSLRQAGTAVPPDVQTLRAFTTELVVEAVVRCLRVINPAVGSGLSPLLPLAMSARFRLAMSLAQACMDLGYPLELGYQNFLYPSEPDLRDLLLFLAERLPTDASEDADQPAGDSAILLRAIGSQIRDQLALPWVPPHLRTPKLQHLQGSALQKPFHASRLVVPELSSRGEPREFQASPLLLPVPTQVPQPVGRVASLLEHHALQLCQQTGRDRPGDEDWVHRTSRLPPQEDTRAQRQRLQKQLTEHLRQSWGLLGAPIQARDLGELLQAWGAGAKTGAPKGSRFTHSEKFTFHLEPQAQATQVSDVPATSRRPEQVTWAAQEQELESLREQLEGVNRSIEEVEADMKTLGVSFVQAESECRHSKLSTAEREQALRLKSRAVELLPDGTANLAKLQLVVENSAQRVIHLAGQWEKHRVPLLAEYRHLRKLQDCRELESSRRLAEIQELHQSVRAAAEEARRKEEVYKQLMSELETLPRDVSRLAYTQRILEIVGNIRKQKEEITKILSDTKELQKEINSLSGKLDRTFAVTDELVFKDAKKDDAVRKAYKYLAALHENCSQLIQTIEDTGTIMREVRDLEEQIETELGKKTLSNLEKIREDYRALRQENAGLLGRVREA
UniProt Q96IZ0: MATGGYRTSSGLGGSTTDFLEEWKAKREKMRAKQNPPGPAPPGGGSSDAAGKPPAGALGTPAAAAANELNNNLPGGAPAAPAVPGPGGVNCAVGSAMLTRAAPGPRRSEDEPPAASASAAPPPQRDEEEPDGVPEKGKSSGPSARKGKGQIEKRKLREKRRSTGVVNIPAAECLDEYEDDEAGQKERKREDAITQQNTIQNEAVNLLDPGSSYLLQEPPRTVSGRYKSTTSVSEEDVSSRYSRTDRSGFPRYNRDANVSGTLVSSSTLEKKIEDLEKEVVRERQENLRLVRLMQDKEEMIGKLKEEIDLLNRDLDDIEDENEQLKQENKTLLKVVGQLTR
UniProt Q12972: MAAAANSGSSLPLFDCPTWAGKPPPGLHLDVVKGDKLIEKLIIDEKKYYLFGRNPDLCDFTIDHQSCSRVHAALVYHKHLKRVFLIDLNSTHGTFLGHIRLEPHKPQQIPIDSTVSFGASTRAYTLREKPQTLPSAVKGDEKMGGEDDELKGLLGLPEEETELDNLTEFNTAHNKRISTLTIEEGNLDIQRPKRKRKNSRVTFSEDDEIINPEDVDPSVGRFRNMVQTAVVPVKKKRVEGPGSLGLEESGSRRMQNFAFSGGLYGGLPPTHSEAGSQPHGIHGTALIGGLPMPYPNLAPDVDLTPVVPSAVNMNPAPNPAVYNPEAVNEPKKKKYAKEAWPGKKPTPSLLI

Assay [1] deals with T1, Strep/FLAG-tagged TTC30A A375V (human) (UniProt Q86WT1).
T1 sequence: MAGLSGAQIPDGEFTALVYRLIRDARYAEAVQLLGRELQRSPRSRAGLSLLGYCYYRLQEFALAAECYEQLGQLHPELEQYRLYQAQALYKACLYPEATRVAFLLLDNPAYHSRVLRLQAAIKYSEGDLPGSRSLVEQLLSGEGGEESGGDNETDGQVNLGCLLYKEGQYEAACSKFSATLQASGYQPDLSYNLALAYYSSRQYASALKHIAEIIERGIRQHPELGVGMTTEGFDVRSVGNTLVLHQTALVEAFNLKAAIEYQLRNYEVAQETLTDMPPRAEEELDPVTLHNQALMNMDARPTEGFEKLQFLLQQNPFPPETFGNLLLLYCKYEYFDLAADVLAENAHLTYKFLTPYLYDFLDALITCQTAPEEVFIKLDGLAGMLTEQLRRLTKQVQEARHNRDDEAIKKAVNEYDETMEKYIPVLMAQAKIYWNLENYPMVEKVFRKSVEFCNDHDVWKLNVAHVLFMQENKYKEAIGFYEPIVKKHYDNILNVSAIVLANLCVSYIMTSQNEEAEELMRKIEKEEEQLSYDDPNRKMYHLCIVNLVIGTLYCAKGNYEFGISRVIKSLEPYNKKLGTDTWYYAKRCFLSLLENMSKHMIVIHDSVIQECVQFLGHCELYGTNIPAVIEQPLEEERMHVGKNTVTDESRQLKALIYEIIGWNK
Nature of the assay: affinity purification with mass spectrometry; Strep/FLAG-tagged bait in lysate of transiently transfected HEK293T (1x TBS, 0.5% Nonidet-P40) on Strep-Tactin Superflow 1.5 h, three washes, Strep elution buffer; LC-MS/MS, label-free quantification, six biological replicates; Strep/FLAG-tagged RAF1 as control.

Assay [2] has as its target T2, Strep/FLAG-tagged TTC30A wildtype (human) (UniProt Q86WT1).
T2 sequence: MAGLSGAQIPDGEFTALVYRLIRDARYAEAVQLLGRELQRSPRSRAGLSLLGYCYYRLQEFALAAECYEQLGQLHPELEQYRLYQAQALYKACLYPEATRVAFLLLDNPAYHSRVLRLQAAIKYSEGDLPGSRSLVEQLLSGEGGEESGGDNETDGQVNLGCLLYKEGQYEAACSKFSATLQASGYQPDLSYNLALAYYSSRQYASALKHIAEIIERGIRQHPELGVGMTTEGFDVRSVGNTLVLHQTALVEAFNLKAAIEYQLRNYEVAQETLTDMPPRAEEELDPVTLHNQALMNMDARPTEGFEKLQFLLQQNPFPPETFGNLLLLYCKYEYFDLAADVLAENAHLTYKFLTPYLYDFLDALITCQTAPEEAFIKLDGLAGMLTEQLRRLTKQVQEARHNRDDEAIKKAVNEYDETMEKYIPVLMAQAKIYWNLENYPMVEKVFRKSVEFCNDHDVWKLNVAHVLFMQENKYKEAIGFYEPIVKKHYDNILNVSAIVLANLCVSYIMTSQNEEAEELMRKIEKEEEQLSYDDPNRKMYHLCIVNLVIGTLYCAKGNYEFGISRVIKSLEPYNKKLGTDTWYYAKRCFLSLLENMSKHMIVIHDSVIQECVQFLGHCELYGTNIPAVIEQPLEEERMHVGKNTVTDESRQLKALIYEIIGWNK
Described as above.

Turning to RAB21 (from UniProt Q9UL25 1-225), the binding result in assay [1] and in assay [2] was “binds” each time.
Take GRWD1 (from UniProt Q9BQ67 1-446): the binding entry in assay [1] and in assay [2] was “binds” in each case.
Consider NDUFB11 (from UniProt Q9NX14 30-153), for which the binding result in assay [1] and in assay [2] was “binds” throughout.
For ATXN2 (from UniProt Q99700 1-1313), the binding entry in assay [1] and in assay [2] was “binds” throughout.
As to ABCD1 (from UniProt P33897 1-745), the binding result in assay [1] and in assay [2] was “binds” throughout.
On to CCDC22 (from UniProt O60826 1-627), for which the binding entry in assay [1] and in assay [2] was “binds” each time.
For PAWR (from UniProt Q96IZ0 1-340), the binding result in assay [1] and in assay [2] was “binds” in each case.
As for PPP1R8 (from UniProt Q12972 1-351), the binding entry in assay [1] and in assay [2] was “binds” in each case.

B1: RAP1GDS1 (protein, UniProt P52306 1-607)
chain: MDNLSDTLKKLKITAVDKTEDSLEGCLDCLLQALAQNNTETSEKIQASGILQLFASLLTPQSSCKAKVANIIAEVAKNEFMRIPCVDAGLISPLVQLLNSKDQEVLLQTGRALGNICYDSHEGRSAVDQAGGAQIVIDHLRSLCSITDPANEKLLTVFCGMLMNYSNENDSLQAQLINMGVIPTLVKLLGIHCQNAALTEMCLVAFGNLAELESSKEQFASTNIAEELVKLFKKQIEHDKREMIFEVLAPLAENDAIKLQLVEAGLVECLLEIVQQKVDSDKEDDITELKTGSDLMVLLLLGDESMQKLFEGGKGSVFQRVLSWIPSNNHQLQLAGALAIANFARNDANCIHMVDNGIVEKLMDLLDRHVEDGNVTVQHAALSALRNLAIPVINKAKMLSAGVTEAVLKFLKSEMPPVQFKLLGTLRMLIDAQAEAAEQLGKNVKLVERLVEWCEAKDHAGVMGESNRLLSALIRHSKSKDVIKTIVQSGGIKHLVTMATSEHVIMQNEALVALALIAALELGTAEKDLESAKLVQILHRLLADERSAPEIKYNSMVLICALMGSECLHKEVQDLAFLDVVSKLRSHENKSVAQQASLTEQRLTVES
In the case of B1, the binding entry in assay [1] and in assay [2] was “binds” throughout.

B2: SPNS1 (protein, UniProt Q9H2V7 1-528)
chain: MAGSDTAPFLSQADDPDDGPVPGTPGLPGSTGNPKSEEPEVPDQEGLQRITGLSPGRSALIVAVLCYINLLNYMDRFTVAGVLPDIEQFFNIGDSSSGLIQTVFISSYMVLAPVFGYLGDRYNRKYLMCGGIAFWSLVTLGSSFIPGEHFWLLLLTRGLVGVGEASYSTIAPTLIADLFVADQRSRMLSIFYFAIPVGSGLGYIAGSKVKDMAGDWHWALRVTPGLGVVAVLLLFLVVREPPRGAVERHSDLPPLNPTSWWADLRALARNPSFVLSSLGFTAVAFVTGSLALWAPAFLLRSRVVLGETPPCLPGDSCSSSDSLIFGLITCLTGVLGVGLGVEISRRLRHSNPRADPLVCATGLLGSAPFLFLSLACARGSIVATYIFIFIGETLLSMNWAIVADILLYVVIPTRRSTAEAFQIVLSHLLGDAGSPYLIGLISDRLRRNWPPSFLSEFRALQFSLMLCAFVGALGGAAFLGTAIFIEADRRRAQLHVQGLLHEAGSTDDRIVVPQRGRSTRVPVASVLI
Regarding B2, the binding entry in assay [1] and in assay [2] was “binds” each time.

B3: SLC35F6 (protein, UniProt Q8N357 19-371)
chain: SINTLSAKWADNFMAEGCGGSKEHSFQHPFLQAVGMFLGEFSCLAAFYLLRCRAAGQSDSSVDPQQPFNPLLFLPPALCDMTGTSLMYVALNMTSASSFQMLRGAVIIFTGLFSVAFLGRRLVLSQWLGILATIAGLVVVGLADLLSKHDSQHKLSEVITGDLLIIMAQIIVAIQMVLEEKFVYKHNVHPLRAVGTEGLFGFVILSLLLVPMYYIPAGSFSGNPRGTLEDALDAFCQVGQQPLIAVALLGNISSIAFFNFAGISVTKELSATTRMVLDSLRTVVIWALSLALGWEAFHALQILGFLILLIGTALYNGLHRPLLGRLSRGRPLAEESEQERLLGGTRTPINDAS
Take B3: the binding entry in assay [1] and in assay [2] was “binds” throughout.

B4: VPS11 (protein, UniProt Q9H270 1-941)
chain: MAAYLQWRRFVFFDKELVKEPLSNDGAAPGATPASGSAASKFLCLPPGITVCDSGRGSLVFGDMEGQIWFLPRSLQLTGFQAYKLRVTHLYQLKQHNILASVGEDEEGINPLVKIWNLEKRDGGNPLCTRIFPAIPGTEPTVVSCLTVHENLNFMAIGFTDGSVTLNKGDITRDRHSKTQILHKGNYPVTGLAFRQAGKTTHLFVVTTENVQSYIVSGKDYPRVELDTHGCGLRCSALSDPSQDLQFIVAGDECVYLYQPDERGPCFAFEGHKLIAHWFRGYLIIVSRDRKVSPKSEFTSRDSQSSDKQILNIYDLCNKFIAYSTVFEDVVDVLAEWGSLYVLTRDGRVHALQEKDTQTKLEMLFKKNLFEMAINLAKSQHLDSDGLAQIFMQYGDHLYSKGNHDGAVQQYIRTIGKLEPSYVIRKFLDAQRIHNLTAYLQTLHRQSLANADHTTLLLNCYTKLKDSSKLEEFIKKKSESEVHFDVETAIKVLRQAGYYSHALYLAENHAHHEWYLKIQLEDIKNYQEALRYIGKLPFEQAESNMKRYGKILMHHIPEQTTQLLKGLCTDYRPSLEGRSDREAPGCRANSEEFIPIFANNPRELKAFLEHMSEVQPDSPQGIYDTLLELRLQNWAHEKDPQVKEKLHAEAISLLKSGRFCDVFDKALVLCQMHDFQDGVLYLYEQGKLFQQIMHYHMQHEQYRQVISVCERHGEQDPSLWEQALSYFARKEEDCKEYVAAVLKHIENKNLMPPLLVVQTLAHNSTATLSVIRDYLVQKLQKQSQQIAQDELRVRRYREETTRIRQEIQELKASPKIFQKTKCSICNSALELPSVHFLCGHSFHQHCFESYSESDADCPTCLPENRKVMDMIRAQEQKRDLHDQFQHQLKCSNDSFSVIADYFGRGVFNKLTLLTDPPTARLTSSLEAGLQRDLLMHSRRGT
With B4, the binding result in assay [1] and in assay [2] was “binds” throughout.

B5: HNRNPLL (protein, UniProt Q8WVV9 1-542)
chain: MSSSSSSPRETYEEDREYESQAKRLKTEEGEIDYSAEEGENRREATPRGGGDGGGGGRSFSQPEAGGSHHKVSVSPVVHVRGLCESVVEADLVEALEKFGTICYVMMMPFKRQALVEFENIDSAKECVTFAADEPVYIAGQQAFFNYSTSKRITRPGNTDDPSGGNKVLLLSIQNPLYPITVDVLYTVCNPVGKVQRIVIFKRNGIQAMVEFESVLCAQKAKAALNGADIYAGCCTLKIEYARPTRLNVIRNDNDSWDYTKPYLGRRDRGKGRQRQAILGEHPSSFRHDGYGSHGPLLPLPSRYRMGSRDTPELVAYPLPQASSSYMHGGNPSGSVVMVSGLHQLKMNCSRVFNLFCLYGNIEKVKFMKTIPGTALVEMGDEYAVERAVTHLNNVKLFGKRLNVCVSKQHSVVPSQIFELEDGTSSYKDFAMSKNNRFTSAGQASKNIIQPPSCVLHYYNVPLCVTEETFTKLCNDHEVLTFIKYKVFDAKPSAKTLSGLLEWECKTDAVEALTALNHYQIRVPNGSNPYTLKLCFSTSSHL
In the case of B5, the binding entry in assay [1] and in assay [2] was “binds” throughout.

B6: USMG5 (protein, UniProt Q96IX5 1-58)
chain: MAGPESDAQYQFTGIKKYFNSYTLTGRMNCVLATYGSIALIVLYFKLRSKKTPAVKAT
For the molecule B6, the binding entry in assay [1] and in assay [2] was “binds” each time.

The values above are taken from publication PMC10701685.
